According to PubChem BioAssay AID2685 (National Center for Advancing Translational Sciences (NCATS), 2010):
This is one part of the list. These are further read-outs of the screen, such as a control signal, another cell line or another target. No call is given for them. Compounds called inactive in the main read-out are mostly missing here. Potencies come from curve fits of mixed quality, noted in brackets.

Assay: qHTS Assay for Lipid Storage Modulators in Drosophila S3 Cells;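 on cell number change: cells counted by Cell Tracker Red CMTPX staining in the red channel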
Settings: BODIPY lipid droplet fluorescence, 18-24 h; for cell number change: measured here: cell count max response, cells fed with added oleic acid
Outline: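 Drosophila S3 cells got compounds at several concentrations plus oleic acid (400 uM solution). Laser-scanning cytometry with 488 nm excitation read lipid droplets at 500-530 nm and cells at 575-640 nm. Percent activity was relative to 20 uM Triacsin C.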

[1] = measured here: lipid fluorescence (Fed channel) AC50, cells fed with added oleic acid
[2] = measured here: cell number channel AC50, cells fed with added oleic acid

Compound	cell number change	AC50 [1]	AC50 [2]
Cc1ccccc1-c1nc2cc(N)ccc2o1	-11.2%	0.92 µM [rising, full curve, poor fit]	
c1ccc(C2=NNC(=NC3CC3)SC2)cc1	57.8%		29.1 µM [rising, single point]
Cc1ccc(C)c(NC(=S)NNC(=O)c2csc(C)c2)c1			2.91 µM [rising, single point]
CCn1nc(C(=O)Nc2nc(-c3ccccn3)cs2)c2ccccc2c1=O	17.7%	0.82 µM [rising, full curve, poor fit]	
Cc1cc(C(C)(C)C)oc1C(=O)OCC(=O)NC1CCCCC1	30.2%	2.06 µM [rising, full curve]	0.326 µM [rising, full curve]
COC(=O)C1=C(C)N(c2ccc(Cl)c(Cl)c2)C(=O)C1	-22.5%	18.4 µM [falling, partial curve]	
CC1(C)CC(=O)C2=C(C1)NC(=O)CC2c1ccc(F)cc1 (stereo not drawn)	6.11%	0.82 µM [falling, full curve]	
CS(=O)(=O)c1ccc2nc(NC(=O)c3ccc(Cl)cc3)sc2c1	-6.67%	20.6 µM [rising, single point]	
CC(C)(C)n1nnnc1C(c1ccccn1)N1CCN(C(c2ccccc2)c2ccccc2)CC1 (stereo not drawn)	7.11%	1.3 µM [rising, partial curve]	
COC(=O)c1ccc(NC2CC(=O)N(c3ccccc3C)C2=O)cc1 (stereo not drawn)	13.4%		
COc1ccc(-c2noc(N3CCC(C(=O)NCc4ccccc4Cl)CC3)n2)cc1	32.6%	18.4 µM [falling, single point]	0.184 µM [rising, partial curve, poor fit]
CCOc1ccc(N2CCn3c2nc2c3c(=O)n(CCc3ccccc3)c(=O)n2C)cc1	36.5%	1.3 µM [rising, full curve]	1.16 µM [rising, full curve, poor fit]
O=C(CN1CCN(c2ccccc2O)CC1)Nc1ccc(S(=O)(=O)N2CCCCCC2)cc1			6.51 µM [rising, single point]
O=C(COc1ccc2c(c1)OCO2)NC12CC3CC(CC(C3)C1)C2			6.51 µM [falling, partial curve, poor fit]
CC(=O)OC1C(OC(C)=O)N(C(C)=O)C(=O)N1C(C)=O (stereo not drawn)	-10.9%	1.84 µM [falling, full curve]	
C/C(=N\Nc1nccnc1Cl)c1ccc(Cl)c(Cl)c1	6.93%	0.58 µM [rising, single point]	
Cn1nc(C(C)(C)C)c([N+](=O)[O-])c1C(=O)Nc1ccccc1	2%	29.1 µM [rising, single point]	
CC1CCc2c(sc3ncnc(NCCCOC(C)C)c23)C1 (stereo not drawn)	15.5%	1.84 µM [rising, partial curve]	
COc1ccc2[nH]c3c(C)c4ccncc4c(C)c3c2c1	-44.4%	14.6 µM [falling, partial curve]	14.6 µM [falling, single point]
OCCN1CCN(CCOc2cccc(Cl)c2)CC1	8.05%		
COc1ccc2[nH]c(C(=O)Nc3ccc(F)cc3Br)cc2c1	1.65%	0.164 µM [falling, full curve, poor fit]	
N#C/C(=C\c1ccc(-c2ccc(Br)cc2)o1)C(=O)NCCc1c[nH]c2ccccc12	-43.5%	6.51 µM [rising, partial curve, poor fit]	6.51 µM [rising, partial curve, poor fit]
O=[N+]([O-])c1cccnc1N1CCC(c2cc(-c3ccc(Cl)cc3)n[nH]2)CC1		0.651 µM [rising, full curve]	1.3 µM [rising, partial curve]
Cn1c(=O)c2c(nc(NCCNC(=O)c3ccco3)n2Cc2ccc(Cl)cc2Cl)n(C)c1=O	13.4%	0.291 µM [rising, partial curve, poor fit]	
CCOc1ccc(Cn2c(SCCCCC#N)nc3c2c(=O)n(C)c(=O)n3C)cc1OCC	-4.77%		
CC(C)(C)NC(=O)CN(C(=O)CS(=O)CC(=O)Nc1ccc(F)cc1)c1ccccc1F (stereo not drawn)	-20.1%		
Cc1nc2sc(C(=O)OC(C)C)c(N)c2c(C)c1C	41.2%	6.51 µM [falling, single point]	
COc1cc(C(=O)NCc2ccc3[nH]c(C)cc3c2)cc(OC)c1OC	50.2%		1.3 µM [rising, full curve]
CCCCN(CC(O)COc1cccc(C)c1)CC(O)COc1cccc(C)c1 (stereo not drawn)	32.9%	6.31 µM [falling, single point]	0.411 µM [rising, partial curve, poor fit]
O=C1COc2ccc(C(=O)NCc3ccco3)cc2N1			0.82 µM [rising, full curve, poor fit]

Not a retest: an excerpt of the list.
Compound	cell number change	AC50 [1]	AC50 [2]
COC(=O)C1=C(C)N(c2ccc(Cl)c(Cl)c2)C(=O)C1	-22.5%	18.4 µM [falling, partial curve]	
CC1(C)CC(=O)C2=C(C1)NC(=O)CC2c1ccc(F)cc1 (stereo not drawn)	6.11%	0.82 µM [falling, full curve]	
